{
  "sequences": {"note": "Amino acid sequences for entries named in this document (tags omitted). Residues count along the entry.", "UniProt Q14126, residues 50-609": "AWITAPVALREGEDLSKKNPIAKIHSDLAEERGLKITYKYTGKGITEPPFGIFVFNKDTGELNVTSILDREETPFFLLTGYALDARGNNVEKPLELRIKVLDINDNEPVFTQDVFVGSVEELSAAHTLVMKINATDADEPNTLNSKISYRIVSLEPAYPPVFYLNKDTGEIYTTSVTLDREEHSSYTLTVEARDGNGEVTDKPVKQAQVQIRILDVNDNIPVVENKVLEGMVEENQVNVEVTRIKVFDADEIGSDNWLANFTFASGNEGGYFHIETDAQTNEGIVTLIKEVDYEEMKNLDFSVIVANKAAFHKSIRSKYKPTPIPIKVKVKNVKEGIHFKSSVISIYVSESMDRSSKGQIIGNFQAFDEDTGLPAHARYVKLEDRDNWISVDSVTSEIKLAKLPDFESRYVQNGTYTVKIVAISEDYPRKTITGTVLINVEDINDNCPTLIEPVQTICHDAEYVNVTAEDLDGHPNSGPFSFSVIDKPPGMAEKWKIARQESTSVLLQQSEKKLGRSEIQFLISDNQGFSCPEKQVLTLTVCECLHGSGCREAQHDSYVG"},
  "source": "patent US20190092819A1",
  "about": "(published 2019)",
  "target": "Recombinant human DSG2 protein (desmoglein 2), soluble (human) (UniProt Q14126)",
  "experiment": "Western blot of dimeric knob probed with soluble DSG2",
  "note": "No constants are given. Whether binding was seen depends on the method and setting. Some results given as binding are weak or reduced against the parent protein; the word gives no strength.",
  "data": [
    {"binder": "dimeric Ad3 fiber knob mutant L292A (ligand) MKVSALKEKVSALKEKVSALKEKVSALKEKVSALKEGSGGGSGGGSGGGSNSIALKNNTLWTGPKPEANCIIEYGKQNPDSKLTLILVKNGGIVNGYVTLMGASDYVNTLFKNKNVSINVELYFDATGHILPDSSSLKTDLELKYKQTADFSARGFMPSTTAYPFVLPNAGTHNENYIFGQCYYKASDGALFPLEVTVMLNKRLPDSRTSYVMTFLWSANAGLAPETTQATLITSPFTFSYIREDD", "values": [
      {"measurement": "binding", "value": "binds"}
    ]}
  ]
}
